Reference: patent US20250282868A1
No constants are given. Whether binding was seen depends on the method and setting. Some results given as binding are weak or reduced against the parent protein; the word gives no strength.

B1: EOS006173 (antibody, V domains shown)
VH: EVQLVESGGGLVQPGRSLRLSCTASGFTFGDYAMSWFRQAPGKGLEWVGFIGSKAYGGTTEYTASVKGRFTISRDGSKSIAYLQMNSLKTEDTAVYYCARGKRRDYGYWHPAFDVWGQGTMVTVSS
VL: DIQMTQSPSSLSASVGDRVTITCQASQDITNYLNWYQQKPGKAPKLLIYDASNLETGVPSRFSGSGSGTDFTFTISSLQPEDIATYYCQEYDQYLTFGGGTKVEIK
B2: EOS006166 (antibody, V domains shown)
VH: EVQLVESGGGLVQPGRSLRLSCTASGFTFGDYAMSWFRQAPGKGLEWVGFIGSKAYGGTTEYTASVKGRFTISRDGSKSIAYLQMNSLKTEDTAVYYCARGKRYSYGYWHPAFDVWGQGTMVTVSS
VL: DIQMTQSPSSLSASVGDRVTITCQASQDITNYLNWYQQKPGKAPKLLIYDASNLETGVPSRFSGSGSGTDFTFTISSLQPEDIATYYCQQYDSYLTFGGGTKVEIK
B3: EOS006174 (antibody, V domains shown)
VH: EVQLVESGGGLVQPGRSLRLSCTASGFTFGEYTMSWFRQAPGKGLEWVGFIGSKAYAGTTEYTASVKGRFTISRDGSKSIAYLQMNSLKTEDTAVYYCARGKRYSYGGWVPAFDVWGQGTMVTVSS
VL: DIQMTQSPSSLSASVGDRVTITCQASQDITNYLNWYQQKPGKAPKLLIYDASNLETGVPSRFSGSGSGTDFTFTISSLQPEDIATYYCQEYDSYLAFGGGTKVEIK
B4: EOS006181 (antibody, V domains shown)
VH: EVQLVESGGGLVQPGRSLRLSCTASGFTFDDHAMSWFRQAPGKGLEWVGFIGSKAYGGTTEYTASVKGRFTISRDGSKSIAYLQMNSLKTEDTAVYYCARGKRYSYTYWTPAFDVWGQGTMVTVSS
VL: DIQMTQSPSSLSASVGDRVTITCQASQDITNYLNWYQQKPGKAPKLLIYDASNLETGVPSRFSGSGSGTDFTFTISSLQPEDIATYYCQQYDSYLTFGGGTKVEIK
B5: EOS006177 (antibody, V domains shown)
VH: QVQLQESGPGLVKPSGTLSLTCAVSGGSISDSAWWSWVRQPPGKGLEWIGEIYHDADTNYNPSLKSRVTISVDKSKNQFSLKLSSVTAADTAVYYCARDTKYWGGMDVWGQGTTVTVSS
VL: DIQMTQSPSSLSASVGDRVTITCQASQDISNYLNWYQQKPGKAPKLLIYDASNLATGVPSRFSGSGSGTDFTFTISSLQPEDIATYYCQQYVEAPTFGGGTKVEIK
B6: EOS006175 (antibody, V domains shown)
VH: QVQLQESGPGLVKPSGTLSLTCAVSGGSISSSNWWSWVRQPPGKGLEWIGEIYHSGSTNYNPSLKSRVTISVDKSKNQFSLKLSSVTAADTAVYYCARDTKYWGGMDVWGQGTTVTVSS
VL: DIQMTQSPSSLSASVGDRVTITCQASQDISNYLNWYQQKPGKAPKLLIYDASNLATGVPSRFSGSGSGTDFTFTISSLQPEDIATYYCQQYVEAPTFGGGTKVEIK
B7: EOS006164 (antibody, V domains shown)
VH: EVQLVESGGGLVQPGRSLRLSCTASGFTFDDYTMSWFRQAPGKGLEWVGFIGSKAYSATTEYTASVKGRFTISRDGSKSIAYLQMNSLKTEDTAVYYCARGKRYSYTYWTPAFDVWGQGTMVTVSS
VL: DIQMTQSPSSLSASVGDRVTITCQASQDITNYLNWYQQKPGKAPKLLIYDASNLETGVPSRFSGSGSGTDFTFTISSLQPEDIATYYCQEYDSYITFGGGTKVEIK
B8: Ab52 (antibody, V domains shown)
VH: QVQLVQSGAEVKKPGASVKVSCKASGYTFTSYYIHWVRQAPGQGLEWMGIINPSGGSTSYAQKFQGRVTMTRDTSTSTVYMELSSLRSEDTAVYYCAREADDSSGYPLGLDVWGQGTMVTVSS
VL: EIVMTQSPATLSVSPGERATLSCRASQSVSSNLAWYQQKPGQAPRLLIYGASTRATGIPARFSGSGSGTEFTLTISSLQSEDFAVYYCQQVNSLPPTFGGGTKVEIK

Molecular target: cynomolgus TREM2 (cynomolgus)
Test: column 'Considered cross-reactive', CHO-cynoTREM2 cells

binding, binds:
B1, B2, B3, B4, B5, B6, B7, B8
